Results taken from PMC12040169 (PLOS Biology, 2025).
The other results are listed elsewhere or left out.

These molecules were tested on T1, CTL2-GFP (C. trachomatis L2/434/Bu, GFP-expressing). Conditions: bulk GFP, single well; 28.5 h, 10 µM; inhibitor.
T1 construct: L2/434/Bu, GFP-expressing
Design: species or system HeLa; Intracellular C. trachomatis growth in HeLa cells, bulk GFP fluorescence relative to DMSO

Row | SMILES | % of control remaining
1 | O=C(O)c1cc(C(=O)O)cc(N2C(=O)c3ccc(-c4ccc5c(c4)C(=O)N(c4cc(C(=O)O)cc(C(=O)O)c4)C5=O)cc3C2=O)c1 [CBK261331] | 100%
2 | O=c1[nH]cc(S(=O)(=O)Nc2ccccc2)c(=O)[nH]1 [CBK287703] | 137.693%
3 | Fc1ccc(SCCc2ccccn2)cc1 [CBK026491G] | 118.427%
4 | O=C(NCc1cccs1)OCc1ccccc1 [CBK008074] | 133.506%
5 | Nc1nc2c(cc1C(=O)NCc1ccccc1)CN(C(=O)CCCc1ccc(F)cc1)CC2 [CBK285887] | 100.442%
6 | Cc1ccc(C(=O)N/C(=C\c2cccc([N+](=O)[O-])c2)C(=O)NC2CCCCC2)cc1 [CBK261407] | 115.148%
7 | O=c1[nH]c2ncc(-c3cccc4ncccc34)nc2n1CCCO [CBK065060] | 142.832%
8 | Cc1cc(=O)n2c(c1C#N)SCC2 [CBK027807] | 122.627%
9 | COc1ccc(C(=O)NCC(=O)NCCOC(=O)c2c(-c3c(F)cccc3Cl)noc2C)cc1 [CBK007386] | 125.246%
10 | CN(C)C(=O)c1ccc(Cn2nc(NC(=O)OCc3ccccc3)c3ccccc32)cc1 [CBK048578] | 106.849%
11 | Cc1c(S(=O)(=O)Nc2ccc3nsnc3c2)cnn1-c1ccccc1 [CBK062229] | 107.753%
12 | COCCC(=O)NC(Cc1cccs1)c1nccs1 (centres unmarked) [CBK282180] | 148.676%
13 | COC1C(O)C(CO)OC1n1cc(I)c(=O)[nH]c1=O (centres unmarked) [CBK201211] | 75.9633%
14 | Cc1c(-n2nnnc2SC(C)c2ccccc2)c(=O)n(-c2ccccc2)n1C (centres unmarked) [CBK295651] | 117.309%
15 | COc1cccc2cc(C(=O)NCc3ccc(Cl)c(Cl)c3)oc12 [CBK149795] | 82.8238%
16 | O=C(CSc1ncnc2c1oc1ccccc12)NC1CCCC1 [CBK287788] | 120.682%
17 | Cn1c(=O)c2c(-c3ccccc3)onc2n(C)c1=O [CBK023569] | 99.1115%
18 | NC(=O)CN1CC2(CCN(CCCn3c(=O)[nH]c4ccccc43)CC2)c2ccccc21 [CBK126787] | 116.037%
19 | Cc1ccc(C(=O)NCCC(=O)Nc2ccccc2C)cc1 [CBK268569] | 90.9246%
20 | CC(=O)Nc1ccc(S(=O)(=O)NCCSc2ccc(C)cc2)cc1 [CBK263563] | 85.0068%
21 | CCCCn1nccc1NC(=O)NC(C)c1ccncc1 (centres unmarked) [CBK304840] | 104.541%
22 | CCNc1nc(-c2ccc(Oc3ccccc3)cc2)cn2ccnc12 [CBK066467] | 177.598%
23 | CCN(CC(=O)N1CCN(C(=O)c2ccc(C)cc2)CC1)C(=O)OC [CBK027051] | 156.432%
24 | CCOC1CCCN(C(=O)c2cccnc2Nc2cccc(F)c2)C1 (centres unmarked) [CBK305307] | 114.341%
25 | Cc1noc(C)c1Cn1cc(NS(=O)(=O)c2cccs2)cn1 [CBK044394] | 104.858%

2 entries picked at random from those above:
Row | SMILES | % of control remaining
10 | CN(C)C(=O)c1ccc(Cn2nc(NC(=O)OCc3ccccc3)c3ccccc32)cc1 [CBK048578] | 106.849%
11 | Cc1c(S(=O)(=O)Nc2ccc3nsnc3c2)cnn1-c1ccccc1 [CBK062229] | 107.753%

(cont.)

Row | SMILES | % of control remaining
26 | COCCc1noc(CC2CCN(c3nc(C)cc(C#N)n3)CC2)n1 [CBK304179] | 138.764%
27 | Cc1ccc(S(=O)(=O)N2CCN(c3ccc([N+](=O)[O-])c(N4CCN(C)CC4)c3)CC2)cc1 [CBK264795] | 111.997%
28 | Cc1nc(NS(=O)(=O)c2c(C)noc2C)sc1C(=O)O [CBK045562] | 107.991%
29 | Nc1nc(CSc2nnc(-c3ccncc3)o2)nc(Nc2ccc(F)cc2)n1 [CBK266221] | 76.9011%
30 | COCCCn1c(=O)[nH]c2ncc(-c3cccc(/C=C/C(=O)O)c3)nc21 [CBK065107] | 161.732%
31 | COc1ccc(N2C(=O)C3C(CC(C)C)NC4(C(=O)N(CC(=O)Nc5ccc(C)cc5)c5ccccc54)C3C2=O)cc1 (centres unmarked) [CBK266034] | 151.588%
32 | O=C(c1ccccc1F)N1CCCC1c1n[nH]cc1-c1ccncc1 (centres unmarked) [CBK283428] | 147.498%
33 | CCN(CC)CCNC(=O)c1cc(O)nc2ccccc12 [CBK269261] | 90.7875%
34 | O=C(Nc1ccc(-c2cccc(F)c2)cc1)c1ccccc1Cn1cncn1 [CBK285565] | 112.816%
35 | Cc1ccc(CSCCNC(=O)/C=C/c2ccccc2)cc1 [CBK263985] | 127.4%
36 | CC(C)N(Cc1nc(-c2ccccc2)no1)C(=O)Nc1cccc(Cl)c1 [CBK269871] | 121.731%
37 | CCOC(=O)c1cnc2c(C)cc(Cl)cc2c1NCCN(C)C [CBK264800] | 100%
38 | CCc1ncc2c(n1)CN(Cc1cc(=O)n3cccc(C)c3n1)CC2 [CBK305914] | 122.762%
39 | O=C(C1CC(O)CN1)N1CC2(CCCC2)c2c(F)cccc21 (centres unmarked) [CBK304269C] | 104.816%
40 | OCc1ccccc1-c1cn2ccnc2c(Nc2ccc(N3CCOCC3)cc2)n1 [CBK037956] | 155.332%
41 | Cn1cc(/C=C(\C(=O)O)C(C(=O)O)=C2C3CC4CC(C3)CC2C4)c2ccccc21 [CBK263749] | 100%
42 | O=C(C1=Cc2ccccc2OC1)N1CCn2cc(C(F)(F)F)nc2C1 [CBK283913] | 87.2641%
43 | CCOC(=O)C1CCN(CC(=O)Nc2ccc(S(N)(=O)=O)cc2)CC1 [CBK266118] | 150.421%
44 | O=[N+]([O-])c1ccc(C2CNC(c3ccccc3O)O2)cc1 (centres unmarked) [CBK262298] | 100%
45 | CC(Oc1nccnc1OCc1ccc(Cl)c(Cl)c1)c1ccncc1 (centres unmarked) [CBK161609] | 98.7632%
46 | C=CCn1c(SCC(=O)N2c3ccccc3C(C)(c3ccccc3)CC2(C)C)nnc1-c1ccncc1 (centres unmarked) [CBK059171] | 84.406%
47 | COc1ccc(OC)c(S(=O)(=O)N2CCC(C(=O)O)CC2)c1 [CBK266835] | 174.584%
48 | COc1ccc(Cl)cc1CN(C)C(=O)c1cnn2cc(CCO)cnc12 [CBK307236] | 98.9608%
49 | COC(=O)c1c(NC(=O)Cn2nc([N+](=O)[O-])c(Cl)c2C)sc2c1CCCC2 [CBK263047] | 118.717%
50 | Cn1cc(C(=O)Nc2cccc(S(=O)(=O)N3CCCCCC3)c2)cn1 [CBK305715] | 96.4323%
